{"source": "PubChem BioAssay AID1259424, University of Nebraska Medical Center – 2018", "aim": "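Seek colon cancer survival genes behaving like KSR1, using a six-gene signature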 (primary screen)", "system": "human HCT116 colon cancer cells", "reagents": "siRNA pool against human genes, 50 nM", "read-out": "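Log2 levels of six mRNAs (branched-DNA multiplex), adjusted by two reference genes and the non-targeting median, then scored against the average KSR1 knockdown pattern as Pearson r and euclidean distance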", "reading the numbers": "mean correlation with KSR1 profile: higher = expression change more like KSR1 knockdown", "note": "The whole screen tested about 14,000 reagents; this is a random part of them. 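Higher correlation or smaller distance means closer resemblance to KSR1 loss; control wells, including KSR1 knockdowns, recur on many plates.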 Further read-outs or replicates are left out here. The record does not give: the time to read-out."}
{"Target gene":"PCDHB11 (protocadherin beta 11)","PubChem SID":"SID364001258","mean correlation with KSR1 profile":0.0457}
{"Target gene":"RPL30 (ribosomal protein L30)","PubChem SID":"SID363992272","mean correlation with KSR1 profile":0.519}
{"Target gene":"COPS4 (COP9 signalosome subunit 4)","PubChem SID":"SID363999897","mean correlation with KSR1 profile":-0.608}
{"Target gene":"TMEM191A (transmembrane protein 191A (pseudogene))","PubChem SID":"SID364003856","mean correlation with KSR1 profile":0.416}
{"Target gene":"UNC50 (unc-50 inner nuclear membrane RNA binding protein)","PubChem SID":"SID363998570","mean correlation with KSR1 profile":0.276}
{"Target gene":"FDXR (ferredoxin reductase)","PubChem SID":"SID363995120","mean correlation with KSR1 profile":-0.0598}
{"Target gene":"AKT2 (AKT serine/threonine kinase 2)","PubChem SID":"SID363992851","mean correlation with KSR1 profile":-0.0509}
{"Target gene":"IL13RA1 (interleukin 13 receptor subunit alpha 1)","PubChem SID":"SID363992816","mean correlation with KSR1 profile":-0.302}
{"Target gene":"RTP3 (receptor transporter protein 3)","PubChem SID":"SID364003625","mean correlation with KSR1 profile":0.155}
{"Target gene":"COL12A1 (collagen type XII alpha 1 chain)","PubChem SID":"SID363995356","mean correlation with KSR1 profile":-0.58}
{"Target gene":"MED20 (mediator complex subunit 20)","PubChem SID":"SID363995270","mean correlation with KSR1 profile":-0.305}
{"Target gene":"RNASEH2A (ribonuclease H2 subunit A)","PubChem SID":"SID363997208","mean correlation with KSR1 profile":-0.0414}
{"Target gene":"PITX2 (paired like homeodomain 2)","PubChem SID":"SID363991657","mean correlation with KSR1 profile":-0.296}
{"Target gene":"MAPK8 (mitogen-activated protein kinase 8)","PubChem SID":"SID363993908","mean correlation with KSR1 profile":0.114}
{"Target gene":"ECHS1 (enoyl-CoA hydratase, short chain 1)","PubChem SID":"SID363995102","mean correlation with KSR1 profile":0.352}
{"Target gene":"GCLM (glutamate-cysteine ligase modifier subunit)","PubChem SID":"SID363993268","mean correlation with KSR1 profile":-0.152}
{"Target gene":"HTR4 (5-hydroxytryptamine receptor 4)","PubChem SID":"SID363992157","mean correlation with KSR1 profile":0.585}
{"Target gene":"C6orf15 (chromosome 6 open reading frame 15)","PubChem SID":"SID363998592","mean correlation with KSR1 profile":-0.501}
{"Target gene":"AKNA (AT-hook transcription factor)","PubChem SID":"SID364003421","mean correlation with KSR1 profile":0.143}
{"Target gene":"GRM4 (glutamate metabotropic receptor 4)","PubChem SID":"SID363992128","mean correlation with KSR1 profile":0.733}
{"Target gene":"POLR3B (RNA polymerase III subunit B)","PubChem SID":"SID364000766","mean correlation with KSR1 profile":-0.36}
{"Target gene":"MAVS (mitochondrial antiviral signaling protein)","PubChem SID":"SID364001801","mean correlation with KSR1 profile":-0.14}
{"Target gene":"CC2D2A (coiled-coil and C2 domain containing 2A)","PubChem SID":"SID364005285","mean correlation with KSR1 profile":-0.151}
{"Target gene":"SLC6A11","PubChem SID":"SID363998668","mean correlation with KSR1 profile":-0.421}
{"Target gene":"CLDN9 (claudin 9)","PubChem SID":"SID364001929","mean correlation with KSR1 profile":-0.408}
{"Target gene":"FABP1 (fatty acid binding protein 1)","PubChem SID":"SID363992705","mean correlation with KSR1 profile":-0.0744}
{"Target gene":"MSTO1 (misato mitochondrial distribution and morphology regulator 1)","PubChem SID":"SID364000794","mean correlation with KSR1 profile":0.00907}
{"Target gene":"UBE2D4 (ubiquitin conjugating enzyme E2 D4)","PubChem SID":"SID363999771","mean correlation with KSR1 profile":0.567}

A few values from the list:
Entry of RPL30 (ribosomal protein L30) [SID363992272] in “mean correlation with KSR1 profile”: 0.519
PCDHB11 (protocadherin beta 11) [SID364001258], mean correlation with KSR1 profile → 0.0457
